{"source": "patent US10787647B2", "about": "“HSD17B13 variants and uses thereof” (Regeneron Pharmaceuticals, Inc., priority 2017, dated 2020)", "origin": "cited, not measured here", "target": "T1, NR1H4 (FXR) (Homo sapiens, UniProt Q96RI1)", "T1 sequence (Q96RI1 1-486)": "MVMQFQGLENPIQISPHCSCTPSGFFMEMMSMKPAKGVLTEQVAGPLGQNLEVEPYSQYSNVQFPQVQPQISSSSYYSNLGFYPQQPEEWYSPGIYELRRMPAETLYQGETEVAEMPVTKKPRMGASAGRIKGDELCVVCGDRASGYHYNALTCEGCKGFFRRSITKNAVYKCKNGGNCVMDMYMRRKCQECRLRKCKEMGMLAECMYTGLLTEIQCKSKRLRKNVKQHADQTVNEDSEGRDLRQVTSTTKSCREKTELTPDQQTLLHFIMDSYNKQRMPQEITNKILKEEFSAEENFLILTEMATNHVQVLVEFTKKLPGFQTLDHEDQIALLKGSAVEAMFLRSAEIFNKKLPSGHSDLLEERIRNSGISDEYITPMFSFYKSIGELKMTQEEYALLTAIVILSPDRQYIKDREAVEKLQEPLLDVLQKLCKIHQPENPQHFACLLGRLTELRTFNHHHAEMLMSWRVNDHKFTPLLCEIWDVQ", "settings": "Phase IIb; cited from earlier work", "note": "At least one compound was matched to its structure with a doubt left."}
{"smiles": "CC[C@H]1[C@@H](O)[C@@H]2[C@H](CC[C@]3(C)[C@@H]([C@H](C)CCC(=O)O)CC[C@@H]23)[C@@]2(C)CC[C@@H](O)C[C@@H]12", "note": "[OCA—Obeticholic acid, Obeticholic acid]", "values": [{"measurement": "Notes (clinical outcome)", "result": "Improved NAS, reversed fibrosis in"}]}
